Out of some 53,000 sequences screened, about 3,700 (7%) were called active.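 Rule for the calls: active = gene knockdowns whose robust z-score for IL-1 alpha signal is at least 2 or at most -2, so actives lie on both sides; inactive = the rest.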 The list shows a part of the results.

The nature of this assay: Components of the Cytosolic LPS Sensing Pathway: Gene Identification via Genome-wide siRNA Screen.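 Note: robust z of the log signal after scaling to non-targeting control siRNA wells of the plate.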 The note with it: RAW264.7 macrophages, IL-1a HTRF, actives lie on both sides, screened at 100 nM (by protocol), cells primed 5 h with Pam3CSK4 first. The method, boiled down: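 RAW264.7 mouse macrophages reverse-transfected with single siRNAs (100 nM final) for 48h, primed with Pam3CSK4 for 5 hours, then transfected with LipidA for 24 hour. Supernatant IL-1a read by HTRF; values normalized to negative-control median, log-transformed robust z-scores.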
On the technique in general: Time-resolved FRET reads energy transfer from a long-lived donor to a nearby acceptor.
As for CCUUUGGACUGUACCACCUTT against Zfp869, the z-score is inactive: 0.723.
For the sequence CGAGUUUAAGGACAUCGAATT against Gjb2, the z-score was inactive: 0.694.
CCAUGUUCGGACGUGGUCUTT against Shkbp1: the z-score was inactive: -1.17.
Consider GGAUCUGAGAUUGACCAAGTT against Usp1, for which the z-score is inactive: 0.994.
With GCCGAGUCUCAGCUUGUAATT against Dnajc3, the z-score was inactive: 0.258.
As to GCUUAUGAGUUAUAUUGCATT against Olfr894, the z-score is inactive: -0.0213.
In the case of CCACUUUAUGGCCAGCCUUTT against Nr2e3, the z-score was inactive: -0.983.
For the sequence CCGACCUCAACUUCAACGATT against Arhgap23, the z-score is inactive: -0.391.
For GAGCUGUGAAUGCCUGUGGTT against Lyz2, the z-score is active: -2.33.
GGUUACUAGAAAAGUGUUGTT against Olfr1489: the z-score is inactive: 1.41.
For GGGUCAAUUUCUCAUGCCUTT against Icam5, the z-score was inactive: -0.717.
As to CCCACAGAAUUUGGACAUATT against Ptcra, the z-score was inactive: 1.17.
Turning to GGUCGACGUGGACUUGACATT against Art4, the z-score was inactive: -1.34.
Then GCGACCCUUCCAUUGUAUUTT against Vsnl1, with inactive: 0.324; and AUGUGACUGGCUUUACAUUTT against Muc4, with inactive: -0.506; and CGACUGGAUACCAAAUUACTT against Mtrex, with inactive: -1.21.
On to GGAAAGAAGAUCGAUUACATT against Atp11c, for which the z-score was active: 2.22.
Take GGCCGUAGGACAGUAUACATT against Wnt5a: the z-score is inactive: -1.14.
Take GGACAAUACGGAGAAAGAUTT against Mdfic: the z-score was inactive: -0.522.
As to GGUAACACUAUCAAGUCUUTT against Txndc2, the z-score was inactive: 0.0141.
Regarding GGCAGCCAUAAUCACAAUGTT against Krtap4-16, the z-score is inactive: 1.29.
Turning to CCUUAUUUUACGGAACUGCTT against Olfr1018, the z-score was active: 2.11.
Then CGGCAGAGCCAGAUAUGAUTT against Mzf1, with inactive: 0.0234; and GUACCUCUUUUUGUAAUGUTT against Olfr235, with inactive: -0.155.
Then GGCUAAGGAAUGUCAAUAATT against Dnajc5g, with inactive: 0.0787; and GCUCGAUUCAGAAAUCUACTT against Sgce, with inactive: -0.735; and GGCAUCUUUCAUAAAACCGTT against Atad3aos, with inactive: -0.622.
CCAAAUAUUACAAACUCGGTT against Sgk1: the z-score was inactive: -0.623.
As for GGUGUUUGAGCAUAUUGGATT against Cat, the z-score was inactive: -0.128.
In the case of GGAAGUUUUAUAGACAAACTT against Zc2hc1c, the z-score is inactive: -0.772.
Regarding GCAGUAAGUCAGUGCCUCATT against Atxn1, the z-score was inactive: 1.51.
Consider CGUAUAUGAUCUGCAUCAUTT against Utp4, for which the z-score is inactive: -0.326.
Consider GCCUCUCCUGUGAAUGACATT against Erlec1, for which the z-score is inactive: -0.699.
For GCUAUGUGUGGCUAAGUUATT against Usp9x, the z-score is inactive: 0.414.
For CCCUUCUGUAAACACCACATT against Aldh3b3, the z-score is inactive: -1.78.
Regarding GGAUCUGGCCCAAUAUUGUTT against Prss12, the z-score is inactive: -0.802.
Then GUUGAGGACUUCUUGCUGGTT against Spg7, with inactive: -1.87; and GCACAAGGUGUUUCAUUAATT against Spaar, with inactive: -1.3; and GGAAAAUUACCAGAGCACCTT against Ntf3, with inactive: 0.704.
Turning to GGAUGAAAAAUACUGGUGUTT against Ugt8a, the z-score was inactive: 0.356.
For GGCAAACGAGAAGAAGGAGTT against Serf2, the z-score is inactive: -1.78.
Regarding GGAAGAAGAUAAAGAGAAATT against Gtf2a1, the z-score is inactive: 1.09.
Then CCGAUGGUCGCACUUCUUATT against Olfr560, with inactive: -1.45.
With GCUAAAAUUAGAGUGUCUGTT against Gtf2h2 the figure was inactive: -0.278.
Consider GGACUGUAUGUGGAAUGGCTT against Bmyc, for which the z-score was inactive: -0.46.
As for CCAUUGAGGGAAAUAAACUTT against Fabp2, the z-score is inactive: -1.64.
With GGCCAAAUUUUCCUUCCAATT against Casd1 the figure was inactive: 0.744; with GGAUUUAUAUCUGAAGUCUTT against Bach1, inactive: 0.248.
With ACGUGGAAUCUGCUGUAAUTT against Tcaim the figure was inactive: 0.106; with GGCUGCCUGUGCUAAAAUGTT against Rbm15b, inactive: -0.153; with GCCUAUUGUAGUGUUACAUTT against Cyp2c67, inactive: -0.887.
As for GCCAAGUAUUUUAAUGCAATT against Fuca2, the z-score was inactive: -0.611.
For GGCUGCUCCACCCUAUAAUTT against Sugt1, the z-score is inactive: 0.135.
With GGGUUUCAGUCUUCUUAUCTT against Olfr556 the figure was inactive: -0.891; with GGUGUCGAGAAGCCUCAAATT against Arhgap24, inactive: -0.617.
Then GCCGUUCACUUUUCAGUAUTT against Slc35b3, with inactive: 0.742; and GCCAAAUGAGUCAGAUACUTT against Ak3, with inactive: -0.402; and GCUGAAACUAACAUUUGAUTT against Anxa3, with inactive: 0.146.
As to GGUUGGCUUCAAAAAUAUGTT against Psmb1, the z-score was inactive: -1.04.
As to GGUUGACUUCAAUAGUUCUTT against Krtap4-7, the z-score was inactive: 0.57.
With GGUGUAUGAGGUGCUGCUATT against Ushbp1 the figure was inactive: 1.06; with GGCCACUGGCAAUGAAAAATT against Gata5, inactive: -0.203.
For GAUCACACUGAAAUCAUCATT against Nudt11, the z-score is inactive: -1.71.
Regarding GGGACUCACAUUUAAACAATT against Trmt10a, the z-score is inactive: -0.12.
As for “GGAAGCAUGCAAUGAUAUUTT against 4933431E20Rik”, the z-score was active: -2.31.
With GGGAGCCAAACAAAAUUGCTT against Bet1 the figure was inactive: -1.14; with GUCAUCAAACUAGGUGCUGTT against Olfr584, active: -2.22.
With GGCCAGUUUAUGGGAUUUUTT against Mis18a, the z-score is inactive: 0.14.

These data come from PubChem BioAssay AID1508600 (Functional Genomics Laboratory (NCATS/FGL), 2020).
